Measured values reported in PMC12018991.
No constants are given. Whether binding was seen depends on the method and setting. Binding seen in cells or lysates may run through a third protein. Some results given as binding are weak or reduced against the parent protein; the word gives no strength.

Chains of the proteins cited; added tags and fusions are not shown.
UniProt Q04206: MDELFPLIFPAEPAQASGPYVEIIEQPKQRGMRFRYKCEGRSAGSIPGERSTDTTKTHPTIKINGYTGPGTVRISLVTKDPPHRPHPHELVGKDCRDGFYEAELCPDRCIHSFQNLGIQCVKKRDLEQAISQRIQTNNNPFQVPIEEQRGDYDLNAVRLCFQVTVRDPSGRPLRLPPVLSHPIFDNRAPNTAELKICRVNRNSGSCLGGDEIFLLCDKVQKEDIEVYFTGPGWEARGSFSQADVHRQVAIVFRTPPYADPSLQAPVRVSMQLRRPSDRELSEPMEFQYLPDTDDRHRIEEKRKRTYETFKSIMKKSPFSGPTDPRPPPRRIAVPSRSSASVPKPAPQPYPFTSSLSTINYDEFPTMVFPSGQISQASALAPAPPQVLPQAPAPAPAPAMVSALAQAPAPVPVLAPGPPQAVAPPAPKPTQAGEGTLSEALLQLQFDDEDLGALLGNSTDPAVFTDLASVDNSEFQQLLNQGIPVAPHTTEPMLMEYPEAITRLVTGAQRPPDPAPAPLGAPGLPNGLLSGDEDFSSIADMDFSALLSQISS
UniProt P46937: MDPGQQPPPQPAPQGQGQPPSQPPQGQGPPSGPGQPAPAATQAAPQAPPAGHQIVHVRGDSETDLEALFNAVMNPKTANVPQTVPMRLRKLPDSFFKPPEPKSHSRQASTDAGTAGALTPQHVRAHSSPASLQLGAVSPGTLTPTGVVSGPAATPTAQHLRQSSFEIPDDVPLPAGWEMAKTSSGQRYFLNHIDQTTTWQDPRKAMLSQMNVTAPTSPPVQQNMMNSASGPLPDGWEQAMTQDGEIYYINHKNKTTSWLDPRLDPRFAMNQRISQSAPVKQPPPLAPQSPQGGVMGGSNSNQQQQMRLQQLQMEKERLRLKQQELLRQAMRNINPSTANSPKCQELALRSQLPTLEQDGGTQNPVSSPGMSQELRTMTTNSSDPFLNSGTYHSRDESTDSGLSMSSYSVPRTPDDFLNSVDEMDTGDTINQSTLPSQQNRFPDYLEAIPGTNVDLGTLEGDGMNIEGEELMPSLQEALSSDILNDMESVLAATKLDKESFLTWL

Tests used:
[1] = target: Myc-tagged p65 (UniProt Q04206); assay: co-IP; HEK293A cells transfected with Myc-p65, HA-ZHX2, Fg-YAP-5SA and/or TEAD4-GFP (fixed amounts of some, increasing amounts of one); lysates precipitated with anti-Myc antibody overnight, Protein A resin, Western blot for the tags, endogenous TEAD4 or endogenous YAP
[2] = target: NF-κB subunit p65 (endogenous, 786-O cells) (human (endogenous in 786-O)) (UniProt Q04206); assay: co-IP; endogenous proteins; 786-O cell lysates incubated with anti-p65 antibody or control IgG overnight at 4 °C, Protein A resin, Western blot; cells grown without or with 2 μM XMU-MP-1 for 6 h

binding [1] | binding [2] | Substance
binds |  | YAP (endogenous, HEK293 cells) (from UniProt P46937 1-504)
 | binds | Yes1-associated transcriptional regulator (endogenous, 786-O cells) (from UniProt P46937 1-504)
